Data reported in publication PMC9354789.
No constants are given. Whether binding was seen depends on the method and setting. A result given as binding can be weak or reduced; the word gives no strength.

Experiments:
[1] = target: Fom-2 decoy (bait) protein (melon (Cucumis melo L.)) (UniProt Q6E436); assay: two-hybrid; reverse hybridization: one-to-one mating of Y187 carrying the AD plasmid with Y2HGold carrying the BD decoy plasmid; QDO/X
[2] = target: Fom-2 decoy (bait) protein (melon (Cucumis melo L.)) (UniProt Q6E436); assay: two-hybrid; Matchmaker Gold system; Y2HGold (pGBKT7-Fom-2) mated with the Y187 melon-F. oxysporum cDNA library, blue colonies on DDO/X/A then QDO/X/A; positive library plasmids retested by co-transformation with the bait or with empty pGBKT7 into Y2HGold on DDO/X and QDO/X/A

binding [1] | binding [2] | Substance
binds | binds | BZIP transcription factor MELO3C011839 (from UniProt A0A1S3BEV4)
binds | binds | BZIP transcription factor MELO3C019349 (from UniProt A0A1S3C234)
